Results reported in paper PMC8268348.
No constants are given. Whether binding was seen depends on the method and setting. Binding seen in cells or lysates may run through a third protein. These calls come from enrichment with a bait or labelling near it, and not all partners need be listed.

Amino acid sequences for entries named in this document (tags omitted).
UniProt P21439: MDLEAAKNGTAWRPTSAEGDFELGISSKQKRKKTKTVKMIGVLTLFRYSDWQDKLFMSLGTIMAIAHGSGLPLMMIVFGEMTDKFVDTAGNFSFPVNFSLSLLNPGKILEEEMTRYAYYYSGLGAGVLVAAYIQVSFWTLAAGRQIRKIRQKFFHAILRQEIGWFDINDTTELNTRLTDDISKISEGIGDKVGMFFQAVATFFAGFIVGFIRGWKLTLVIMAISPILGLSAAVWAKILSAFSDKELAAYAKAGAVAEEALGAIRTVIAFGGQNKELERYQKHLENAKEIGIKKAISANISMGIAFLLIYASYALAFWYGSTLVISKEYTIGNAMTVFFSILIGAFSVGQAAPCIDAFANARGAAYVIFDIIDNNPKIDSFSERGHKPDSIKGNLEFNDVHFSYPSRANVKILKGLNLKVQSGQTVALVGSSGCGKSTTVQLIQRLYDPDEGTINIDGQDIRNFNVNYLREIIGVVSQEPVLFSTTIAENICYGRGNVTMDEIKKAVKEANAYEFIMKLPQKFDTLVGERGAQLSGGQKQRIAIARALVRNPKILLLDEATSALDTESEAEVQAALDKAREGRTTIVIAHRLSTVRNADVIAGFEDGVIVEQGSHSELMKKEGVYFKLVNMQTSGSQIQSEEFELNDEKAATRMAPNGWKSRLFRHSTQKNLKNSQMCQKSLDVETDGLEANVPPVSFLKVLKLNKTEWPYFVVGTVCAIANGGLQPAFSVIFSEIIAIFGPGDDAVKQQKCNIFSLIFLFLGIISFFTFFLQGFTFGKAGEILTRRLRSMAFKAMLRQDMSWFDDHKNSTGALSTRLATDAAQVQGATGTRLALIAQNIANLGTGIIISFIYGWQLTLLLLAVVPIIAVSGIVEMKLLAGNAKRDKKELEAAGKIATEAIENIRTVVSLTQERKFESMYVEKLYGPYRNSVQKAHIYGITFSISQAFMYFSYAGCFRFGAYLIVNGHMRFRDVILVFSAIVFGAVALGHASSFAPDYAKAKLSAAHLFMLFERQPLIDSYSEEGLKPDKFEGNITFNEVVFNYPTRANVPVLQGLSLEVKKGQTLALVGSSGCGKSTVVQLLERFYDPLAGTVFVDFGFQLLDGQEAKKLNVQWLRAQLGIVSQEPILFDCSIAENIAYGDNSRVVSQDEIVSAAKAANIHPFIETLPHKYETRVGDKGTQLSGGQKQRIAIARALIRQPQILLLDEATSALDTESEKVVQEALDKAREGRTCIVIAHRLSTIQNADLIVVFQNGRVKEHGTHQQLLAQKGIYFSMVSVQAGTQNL
UniProt P61026: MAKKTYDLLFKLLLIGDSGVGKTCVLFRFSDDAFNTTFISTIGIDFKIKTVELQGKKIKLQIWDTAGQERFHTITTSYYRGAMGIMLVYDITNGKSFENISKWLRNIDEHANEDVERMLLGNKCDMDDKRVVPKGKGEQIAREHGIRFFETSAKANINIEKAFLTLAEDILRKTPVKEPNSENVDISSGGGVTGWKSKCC

Molecular target: ABCB4 (ATP-binding cassette subfamily B member 4) (human (endogenous in primary human hepatocytes)) (UniProt P21439)
Experiment: affinity purification with mass spectrometry; ABCB4 immunoprecipitated (anti-ABCB4 P3II-26, Protein A-Sepharose) from lysates of primary human hepatocytes and ABCB4-expressing HEK cells; 20 mM Tris-HCl pH 8.0, 137 mM NaCl, 2 mM EDTA, 1% Triton X-100, 4 °C; controls: unspecific IgG2b and non-ABCB4-expressing HEK cells; LC-MS-MS

Row | binding | Molecule
1 | binds | RAB10 (from UniProt P61026 1-200)
2 | binds | RAB13 (protein, UniProt P51153 1-203) MAKAYDHLFKLLLIGDSGVGKTCLIIRFAEDNFNNTYISTIGIDFKIRTVDIEGKKIKLQVWDTAGQERFKTITTAYYRGAMGIILVYDITDEKSFENIQNWMKSIKENASAGVERLLLGNKCDMEAKRKVQKEQADKLAREHGIRFFETSAKSSMNVDEAFSSLARDILLKSGGRRSGNGNKPPSTDLKTCDKKNTNKCSLG
